Results from PMC5506826.
Numbering of substitutions follows the chain as printed. For some of these results: Negatives hold for the conditions tested. For some of these results: At least one verdict was read from the data and is not stated in words by the source. Protein sequences can lack the tags named with them.

How the values were obtained:
[1] = tested on: T1, 6His-SUMO-RegA (Acidithiobacillus ferrooxidans ATCC 23270T); assay: EMSA; details: EMSA: 40 mM Tris-HCl pH 8, 100 mM KCl, 0.5 mM DTT, 0.05% NP40, 2 mM spermidine, 0.2 mM EDTA, 8% glycerol, 15 ng/ul herring sperm DNA, 30 min room temperature, recombinant protein, residues 1-190, protein details: N-terminal 6His-SUMO, probe letters rebuilt from the primers and the genome
T1 sequence (looked up): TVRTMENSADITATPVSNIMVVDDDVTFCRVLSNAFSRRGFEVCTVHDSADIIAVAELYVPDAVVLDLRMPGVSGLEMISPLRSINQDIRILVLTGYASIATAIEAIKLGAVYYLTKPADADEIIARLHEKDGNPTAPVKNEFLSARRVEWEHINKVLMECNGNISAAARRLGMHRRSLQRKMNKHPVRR

[2] = tested on: T2, RegA-HTH-6His (Acidithiobacillus ferrooxidans ATCC 23270T); assay: EMSA; details: EMSA: 40 mM Tris-HCl pH 8, 100 mM KCl, 0.5 mM DTT, 0.05% NP40, 2 mM spermidine, 0.2 mM EDTA, 8% glycerol, 15 ng/ul herring sperm DNA, 30 min room temperature; recombinant protein; residues 140-190; protein details: C-terminal 6His (pET21); label: 5' Cy5 reverse primer; probe letters rebuilt from the primers and the genome
T2 sequence (looked up): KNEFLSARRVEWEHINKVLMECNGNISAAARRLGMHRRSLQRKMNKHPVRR

[3] = tested on: T3, 6His-SUMO-RegA_D68A D67A (Acidithiobacillus ferrooxidans ATCC 23270T); assay: EMSA; details: same threshold as wild type; EMSA: 40 mM Tris-HCl pH 8, 100 mM KCl, 0.5 mM DTT, 0.05% NP40, 2 mM spermidine, 0.2 mM EDTA, 8% glycerol, 15 ng/ul herring sperm DNA, 30 min room temperature; recombinant protein; residues 1-190; protein details: N-terminal 6His-SUMO; label: 5' Cy5 reverse primer; probe letters rebuilt from the primers and the genome
T3 sequence (looked up): T1 sequence (looked up) with D67A

[4] = tested on: T4, 6His-SUMO-RegA_A102S A101S (Acidithiobacillus ferrooxidans ATCC 23270T); assay: EMSA; details: same threshold as wild type; EMSA: 40 mM Tris-HCl pH 8, 100 mM KCl, 0.5 mM DTT, 0.05% NP40, 2 mM spermidine, 0.2 mM EDTA, 8% glycerol, 15 ng/ul herring sperm DNA, 30 min room temperature; recombinant protein; residues 1-190; protein details: N-terminal 6His-SUMO; label: 5' Cy5 reverse primer; probe letters rebuilt from the primers and the genome
T4 sequence (looked up): T1 sequence (looked up) with A101S

[5] = tested on: T1, 6His-SUMO-RegA (Acidithiobacillus ferrooxidans ATCC 23270T); assay: DLS; details: Dv50 9.22 nm vs 7.58 nm free, tetramer; recombinant protein; residues 1-190; protein details: N-terminal 6His-SUMO; label: 5' Cy5 reverse primer (EMSA); probe letters rebuilt from the primers and the genome

Sequence | binding result ([1]; label: 5' Cy5 reverse primer) | binding result [2] | further results
AAAGAGTACCTCCAGTTCCCAGGGATCGACCCGCAGCGTCCCAAAGGGGTTATCCCGCGTGGCCGGACGCCAGAAGAGATTCGGCAACCATCCTTTGTTGCGCACTGCGGGGGCCAGATAAAACGCCCGACAACGTGCGGCTACCTCCGCTGGCGCGGGAATCGGGATCACATCCAGGTTTTCCATAATACCCCTTTCAAGTCGTTGCCGATGCGGGTCGCCACCCACGGCAACGATCATAAAGCCATTTGCTTGGCAACGGAATCATTGTGGAGCATAGTGGTCAACTATTCACATGGGGGGTACAGTTTGTTCCACGGTGTGTATTC (double strand) [hdrB 329 bp] | binds |  | 
AATCCGTACATGTGCCACTCGCTTGCATGAAAGAAAATTGACCGGGGATTCTACATGAAACGCCCGGCAGGCTAACCCCCAAGCCGCATCATGAACACTCTGGCGGAACGGTTGGGGTCATTTACAAAGTGATGGTGCTCCGGCTTGTCCCGCCAGATCCCTTGGGTAATGGCCTCCGCGATCTGTCCGTCACTGGCTGCTCCGCGTATGAGAGGCAAAAGTTCCAACCCCCCATCCTGCCCCAGACAATACACCAGACGCCCCGTTGCAGTGAGGCGTACACGGTTGCAGGTTGCGCAAAAATCGTCGCTGATGGGCGTAATGAAG (double strand) [hdr 327 bp] | binds | binds | 
ATATTTCTCCCTGACGGACTTCAGACCATCCGCGATATGACAGGATAGCGATCACTATCCGATTACCTTCCCCGACACTGCATGCAGATCAGGATTTCTATGGGCTTCCACCGCACAGCGGCCGCCGAACCACGGCGTCCGGGCTGCCGGCGATTCTGCAGCAGGCCGGCATTGGCACCAGTTTTCACCACTTCCGTAAATCATATAAATTTATACTATTACTGCCTATTGATTACCTGGCAGTAAAACTAGTGCAGGCGGGGGCGCAAAGCAATAGGGATTTGCCTCAAATATTTTTGGGCTTATGTAAATAGTATTAGTGATGTGCGTGCGCCCAAAAGATAAATCATAATATTACCTTTATCTTATTAAGACGCATCTGAAAACCATCTGTG (double strand) [cyo 395 bp] | binds | binds | 
CAAATGAGATCGAAATACGCGCTCGTTGGCCCTTTTGGGACAACTTCACGGCCGACCTGTGCCGTTTGGCCCTTCCCCACTCCTTCCAGATAACCCACGTTGTAAGAATAACAAAATAAAACAGCATCCTGTAATCATTATGCGGCTGGCACAATACATGCATAAAACATCTCGTGCTGCCGCGGGATTCTCATTTTCATTTACTCATTGAATATCATAAGCGGGATGCAGCCATAAATATAACGCTGGTTGTGTTATTGGGAGCGAGCATTTAATTCTGTTGATATCGTTTATGGGAATAACAAAAGTGGAGACGCAGCTGAAAAAGCGAAGCTGATGACAGAGTACGTTATACCTCACCAAATGGATTGGAGACTTGATATGCC (double strand) [tet 386 bp] | binds | binds | binding result [3]: binds; binding result [4]: binds
CCCCAGTCATGAAGCCTACCGTGGTAATCGCCCCCCTTGCGGTTAAGCTAACTACTTCTGGTAAACCCCACTTCCATGGTGTGACGGGCGGTGTG (double strand) [rrs 16S 95 bp] |  |  | binding result ([1]; label: 5' Cy5 forward primer): no binding
CGATGAGAACAGTGGATGATAACGCGGAGCCAAATAGCCGCAGCACAGCTAATAGACATGCATTATGTACATATAAGGATGATGAATGAATAAGTTTTATTATGATCCTGTCGTTGTCTGGATATGAATAAGTGACGTAATTTCAGTCGTTAACGCGAGATTTATGGTTTTTTCCGCTGGTCACATCGATAACGTGTCATAGATCAAAGGCCAACTATCTCATTAAATATAAAAATTACTTATAGAATTGGCAAAAATCGTAATTTTCAATTGACTGCAAAGTGTTTTATGTTTCGAGGCCGCTACAACAGATGGGTAATCAATGCATGGCTAGGTTTTTATCAGCAGTTCCTAATGGTGATTTGC (double strand) [doxII 366 bp] | binds |  | 
CGTTAAGGCGACGCAGTCAGCGCGTACGAATGTCTTGGCGGCGTTTTGGACCGATAGTGAACCGATACCTTCCTCCCGTAAAACTGGCTCATCCCTACCCATCGCAAAGGTTTCGCGTCATGACCTGAGGTAGGAGCCGTATGCGGTAATTCCGCTCGTACGGATCTGTGCGGGGGGCGGTGGGTAACTACTGCCTCTACCGCGACCCATCACGGTGACCTTGAGATGTCTCTTCCAACACCTTTGTGTTGAGGACGCATGGCGTGGAGATATCTTGGCATGTCAGTTTTTGGGACATTTTAGTGATCGCGGCATATAATTAAAAGGCCAGATTAACATGTTTAAATAACGTTAGCACATAATTCTTTTCTTATGTTCTTTATTTAAGTTATTGTGTTTTAGTGGATCCGTATCGTGATG (double strand) [rus 420 bp] |  |  | binding result [5]: binds; binding result ([1]; label: 5' Cy5 reverse primer (EMSA)): binds
GCCTGTTTGTAGATATTGTTCTGGCCCCTACGGGTAATCCGCATATCTGTTCCTCATCAAAGCAACGGCCTGTACCTCGACCAAGACGCTTCCCAGGTTTCCCAGATATCGGTTCGACCAATTCGCCATCTTCACGTTATCACGCATATGAATTCCCCCGTACGTTGCCAGACGTCGACTGTTTTACTCGTGATGGCAGGAATCGTTACTAAAGGCCCTCAGATTCCATCTGGAGCTTGGATATACCTATCCCGTCACGCTGCTCCCAAGTTCGAACTTCGACCGGCACGCACCATCCGATGCTTGGATTGGGTCAGGTATGTCGGATAACCGACGGTGTAATCACGGCAACCTCGCCAGAGAACACCGCACCGGAAAGCTTACTTTCTGATCGCCATGTTTGTAACTAATAATATTATATTGTTCGCATGTATTGTTGTTCCGTGTTTTTAACGGCCGCTGAATTTGATGTCCCGCTCTACGACCTGGACAGATTTGTAACTGTGTGATAACACCTGATATGATGAGGTTTCATATAGCTGGGTTAGTTCGTTCCCCTGTGGAGC (double strand) [reg 566 bp] | binds | binds | 
GGCATATCAAGTCTCCAATCCATTTGGTGAGGTATAACGTACTCTGTCATCAGCTTCGCTTTTTCAGCTGCGTCTCCACTTTTGTTATTCCCATAAACGATATCAACAGAATTAAATGCTCGCTCCCAATAACACAACCAGCGTTATATTTATGGCTGCATCCCGCTTATGATATTCAATGAGTAAATGAAAATGAGAATCCCGCGGCAGCACGAGATGTTTTATGCATGTATTGTGCCAGCCGCATAATGATTACAGGATGCTGTTTTATTTTGTTATTCTTACAACGTGGGTTATCTGGAAGGAGTGGGG (double strand) [tet 312 bp] | binds |  | 
GTAGCCCCGCCCGATACCCCATGATGAATATTGCGCCGCATATTTAACACCTTAAATGAAGAAACGTCAGGTTATCTGCGTTTGGGAGTTTATCTGGATTAATTAATATATGTACCGTGGCGATCCTGTTTTCGTGGTCTATAGTTCAATAAACTTAACCAATCATCATACGCTGCATGCAAGTATACTCATAACATCATATAACGCATACCGCAAGACATGAATTCGTATTTTATAATAAACACCAATGGCCAGGGCAAGATAACCATCCGCCCTGGCCACCGGGATCTACACTAACAAAGCGTCGTTACCCGAACAACAACCATCCGCGAATTACTTGACAACGATCTTACCGAACATACCGGTGGCGGCATGCCCCGGTATCTGACATACGTAGTAGTAAGTGCCCGCCGTCGGATGCCAGGTAAAATCCGTATATCCGAACTTGCCATCTTTTGGGACCGGACTGAATCCTGTTCCTGCAACAATGGGGTCGATCACCGGCATAACCGCATAAGGAGGTCCTTTTTTGGTGATGTCAAAACTATGACCGAATCCCTTGTTGGT (double strand) [cta 568 bp] | binds | binds | 
GTCAGCGTGCAGATCATGCAGCAGCTTCAGGAGCGGGGCTGGATCACCACCAGCGGACACCGGGATACACCGGGTCGCCCCGCGCTTTGGGTGACAACACCCGGTTTTCTGGAGCATTTTTCATTGCCGTCGCTGGCTGCGTTGCCGGAGATCGTGACGATGGAAGAGGGCCAGACGGATATACAGGCAGGCATAACGGACTGAAACCTTATTAAAAATATATTTGGAAAGTTGCAACAATCTAATTTGACGAATTGGGAAGGTTCTATAATATTCCGACTAGAAATCCAATTGGGCTCGGTAAGCGAAATCCGATGTTGTGGCTTACCTTGAATCTGGCGCGGTAAAGTACGAGAGGAGCA (double strand) [sqr 362 bp] | binds | binds | binding result [3]: binds; binding result [4]: binds
